According to patent US8501683B2 (priority 2008, dated 2013):
Square brackets hold non-standard residues; d marks the D form. MeBmt = C/C=C/C[C@@H](C)[C@@H](O)[C@H](NC)C(=O)O; NMeL = CN[C@@H](CC(C)C)C(=O)O; NMeV = CN[C@H](C(=O)O)C(C)C; dHiv = CC(C)[C@@H](O)C(=O)O; dNMeA = CN[C@H](C)C(=O)O; Abu = CC[C@H](N)C(=O)O

Experiment: general procedure: hybrid (solid and solution phase) peptide synthesis; HATU
Conditions: cyclisation step

## cyclo([MeBmt][Abu][dNMeA][NMeV]L[NMeL]G[dHiv][NMeL]L[NMeV])
  final purity (method not given): 99.38%
